Experimental data as given in paper PMC7287880, “Structural Basis for Broad Substrate Selectivity of Alcohol Dehydrogenase YjgB from Escherichia coli” (Molecules, 2020).
Results are given in words; binding and its absence hold for the method and conditions named. Some entries that bind do so weakly or less than the wild type.

Biological target: Escherichia coli YjgB (EcYjgB) (Escherichia coli BL21 (DE3)) (UniProt P27250)
Assay: crystal structure; crystals of purified EcYjgB, apo (C2, 1.55 Å) and soaked with 5 mM NADP (C222(1), 2.00 Å, with a PEG fragment); the dimer was taken from the crystal by PDBePISA analysis; both purified

binding: binds
B1: Escherichia coli YjgB (EcYjgB) (enzyme, UniProt P27250 1-338)
chain: MSMIKSYAAKEAGGELEVYEYDPGELRPQDVEVQVDYCGICHSDLSMIDNEWGFSQYPLVAGHEVIGRVVALGSAAQDKGLQVGQRVGIGWTARSCGHCDACISGNQINCEQGAVPTIMNRGGFAEKLRADWQWVIPLPENIDIESAGPLLCGGITVFKPLLMHHITATSRVGVIGIGGLGHIAIKLLHAMGCEVTAFSSNPAKEQEVLAMGADKVVNSRDPQALKALAGQFDLIINTVNVSLDWQPYFEALTYGGNFHTVGAVLTPLSVPAFTLIAGDRSVSGSATGTPYELRKLMRFAARSKVAPTTELFPMSKINDAIQHVRDGKARYRVVLKAD
